Results as given in US20230108050A1, “CXCL8 (INTERLEUKIN-8) ACTIVITY INHIBITOR AND CORTICOSTEROID COMBINATION AND PHARMACEUTICAL COMPOSITION AND USE THEREOF” (Dompe' farmaceutici SpA, priority 2020, published 2023).
At least one compound was matched to its structure with a doubt left.

How the values were obtained:
Type in all cases: in vivo, BALB/c mice
[1] = test system: Th17 glucocorticoid-insensitive asthma mouse model; experiment: Assessment of pulmonary mechanics, Example 1e; conditions: ladarixin 10 mg/Kg oral, dexamethasone 5 mg/Kg s.c.; FIG. 5A
Procedure: (§1) The investigation was conducted by using a Th17 glucocorticoid-insensitive asthma mouse model previously described (Campa C C et al., Nat Commun (2018), v. 9, p. 5232 and Dejager Let al., Mucosal Immunol (2015), v. 8, p 1212-25).
(§2) In details, BALB/c mice received systemic immunization by subcutaneous injection of 20 μg of chicken egg ovalbumin (OVA grade V, >98% pure; Sigma, St Louis, Mo.) in saline, emulsified in 75 μL CFA (Sigma-Aldrich) at day 0.
(§3) From day 28 after first immunization to day 31, mice were treated with PBS (vehicle), ladarixin, dexamethasone or ladarixin/dexamethasone as described below, and 60 minutes later exposed to aerosolized ovalbumin (1% in saline) for 20 minutes per day. Ladarixin was administered orally by gavage (10 mg/Kg in saline 0.9%), as previously described (Bertini et al., Br J Pharmacol (2012), v. 165, p. 436-54), once a day. Dexamethasone was administered subcutaneously (5 mg/Kg in saline), once a day.
Mice form different experimental groups were anesthetized with a subcutaneous injection of ketamine and xylazine (130 mg/Kg ketamine and 8.5 mg/Kg xylazine) to maintain spontaneous breathing under anesthesia. […] Under mechanical respiration the Dynamic Compliance (Cdyn) and Lung Resistance (RI) were determined by Resistance and Compliance RC test. […]

[2] = test system: Th17 glucocorticoid-insensitive asthma mouse model; experiment: Leukocytes and protein leakage in airways (BALF), Example 1a; conditions: ladarixin 10 mg/Kg oral, dexamethasone 5 mg/Kg s.c., day 28-31, OVA aerosol
Procedure: as §1, §2, §3
An assessment of total leukocytes content in airways was carried out by performing bronchoalveolar lavage fluid (BALF) as previously described (Russo et al Am J Respir Cell Mol Biol (2009), v. 40, p. 410-21; Campa C C et al., Nat Commun (2018), v. 9, p. 5232). Briefly, an incision was made in the trachea where a 1.7 mm outside diameter polyethylene catheter was inserted. Then, the airways were washed 2 times with 1 mL of phosphate buffer saline (PBS). The samples were centrifuged at 300×g for 10 minutes at 4° C., the pellet was collected, resuspended in 100 μL of 3% BSA in PBS and a sample from this solution was used to assess the total leukocytes in the airways. The remaining was centrifuged at 300×g for 10 minutes at 4° C. on a histology glass slide to assess differential counting of macrophages, lymphocytes, eosinophils and neutrophils using an optical microscopy. Total protein was quantified in the BALF supernatant using a Bio-Rad protein assay Dye Reagent (Bio-Rad, USA) to measure possible protein leakage as previously described (Campa C C et al., Nat Commun (2018), v. 9, p. 5232).

[3] = test system: Th17 glucocorticoid-insensitive asthma mouse model; experiment: Neutrophil myeloperoxidase and eosinophil peroxidase activity assays in lung, Example 2c; conditions: DF2755A 10 mg/kg oral twice a day, dexamethasone 5 mg/kg; FIG. 6F
[4] = test system: Th17 glucocorticoid-insensitive asthma mouse model; experiment: Histological analysis of lung, pulmonary inflammation score, Example 1d; conditions: ladarixin 10 mg/Kg oral, dexamethasone 5 mg/Kg s.c.; six grade scale 0-5; FIG. 4D, FIG. 3
[5] = test system: Th17 glucocorticoid-insensitive asthma mouse model; experiment: Neutrophil peroxidase activity (MPO) in lung tissue, Example 1c; conditions: ladarixin 10 mg/Kg oral, dexamethasone 5 mg/Kg s.c.; after OVA exposure; FIG. 4A
[6] = test system: Th17 glucocorticoid-insensitive asthma mouse model; experiment: Chemokine and cytokine analysis in lung (ELISA), Example 2b; conditions: DF2755A 10 mg/kg oral twice a day, dexamethasone 5 mg/kg, lung supernatant ELISA
Procedure: as §2, with “The investigation was conducted on the same mouse model as described in Example 1. In” for “In”
From day 28 after first immunization to day 31, mice were treated with PBS (vehicle), DF2755A, dexamethasone or DF2755A/dexamethasone as described below, and 60 minutes later exposed to aerosolized ovalbumin (1% in saline) for 20 minutes per day. DF2755A was administered orally by gavage twice a day so that one of the administrations was always 60 min before the OVA challenge. DF2755A was diluted in saline 0.9% only at the time of use at room temperature and used at the dose of 10 mg/kg via the oral route. Dexamethasone was diluted in saline 0.9% only at the time of use at room temperature and given at the dose of 5 mg/kg.
After BALF, the right lung was removed and a sample of 100 mg was homogenized in 1 mL of PBS (0.4 M NaCl and 10 mM of NaPO4) containing anti-proteases (0.1 mM phenylmethylsulfonyl fluoride, 0.1 mM benzetonium chloride, 10 mM EDTA and 20 KI aprotinin A). The homogenate was centrifuged 8,000×g for 10 minutes at 4° C. The supernatant was frozen for further ELISA assay and the pellet was frozen/thawed three times using liquid nitrogen to assess neutrophil myeloperoxidase (MPO) and eosinophil peroxidase (EPO) activities.
The chemokines CXCL1/KC, CCL2/MCP-1 and CCL24/Eotaxin2, and cytokines TNF-α, IFN-γ and IL-17A levels in supernatant of lung tissue were measured by ELISA. Results were expressed as levels of cytokines (pg/mL or ng/mL) per 0.1 g of wet tissue/mL of extraction buffer.

[7] = test system: Th17 glucocorticoid-insensitive asthma mouse model; experiment: Lung histology (H&E), Example 2e; conditions: DF2755A 10 mg/kg oral twice a day, dexamethasone 5 mg/kg, FIG. 9
[8] = test system: Th17 glucocorticoid-insensitive asthma mouse model; experiment: Assessment of leukocyte content in the airways (BALF), Example 2a; conditions: DF2755A 10 mg/kg oral twice a day, dexamethasone 5 mg/kg, BALF day 32
Procedure: The investigation was conducted on the same mouse model as described in Example 1. In details, BALB/c mice received systemic immunization by subcutaneous injection of 20 μg of chicken egg ovalbumin (OVA grade V, >98% pure; Sigma, St Louis, Mo.) in saline, emulsified in 75 μL CFA (Sigma-Aldrich) at day 0. From day 28 after first immunization to day 31, mice were treated with PBS (vehicle), D[…], dexamethasone or D[…]/dexamethasone as described below, and 60 minutes later exposed to aerosolized ovalbumin (1% in saline) for 20 minutes per day. D[…] was administered orally by gavage twice a day so that one of the administrations was always 60 min before the OVA challenge. D[…] was diluted in saline 0.9% only at the time of use at room temperature and used at the dose of 10 mg/kg via the oral route. […] To assess leukocyte infiltration in the airways, bronchoalveolar lavage fluid (BALF) was performed. On day 32 after immunization, an incision was made in the trachea where a 1.7 mm outside diameter polyethylene catheter was inserted. Then, the airways were washed 2 times with 1 mL of phosphate buffer saline (PBS). […] The supernatant was used to quantify the amount of total protein and the levels of chemokines and cytokines. The total protein assay was determined using a Bio-Rad protein assay Dye Reagent (Bio-Rad, USA) to measure possible protein leakage.

## C[C@@H]1C[C@H]2[C@@H]3CCC4=CC(=O)C=C[C@]4(C)[C@@]3(F)[C@@H](O)C[C@]2(C)[C@@]1(O)C(=O)CO [dexamethasone, reference compound]
[1]
  Dynamic Compliance (Cdyn), pulmonary elasticity: refractory
[2]; FIG. 1B
  macrophages infiltrated into airways (BALF): fails to reduce the recruitment
[2]; FIG. 1C
  neutrophils infiltrated into airways (BALF): fails to reduce the recruitment
[2]; FIG. 1D
  eosinophil recruitment into the airways (BALF): slightly reduced
[3]
  accumulation of neutrophils in the lungs (MPO activity): failed to reduce
[4]
  pulmonary inflammation score (lung histology): not
[5]
  neutrophil accumulation in lung parenchyma (MPO activity): not
[6]; FIG. 7A
  CXCL1 level in the lungs: Approximately the same effect
[6]; FIG. 7B
  CCL2 level in the lungs: Approximately the same effect
[6]; FIG. 7C
  CCL24 level in the lungs: Approximately the same effect
[6]; FIG. 7D
  IFN-γ level in the lungs: Approximately the same effect
[7]
  lung inflammation, accumulation of leukocytes in the lung tissue (histology, inflammatory score): failed to prevent lung inflammation
[8]; day 28-31, FIG. 6B
  neutrophil influx into the airways (BALF): did not reduce
[8]; FIG. 6E
  lymphocytes influx into the airways (BALF): did not reduce
